Reference: PubChem BioAssay AID1259254 (NCATS, 2017)

Screen: 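Genome-wide screen for genes that prevent DNA re-replication in cancer cells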 (primary screen)
System: human HCT116 colorectal cancer cells
Reagent: single siRNA against human genes
Duration: 3 days
Detection: 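Imaged Hoechst DNA stain sorts each cell into a cycle phase by DNA amount; per plate, G2 fraction set to 0% for non-targeting and 100% for GMNN siRNA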
Scale: G2 robust z-score: higher = more G2 cells, more excess DNA replication
Active means: 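An siRNA counts as active if its G2 robust z-score lies at least 5 MADs above the screen median; here such calls match roughly 38% of GMNN control or more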
The whole screen tested about 59,000 reagents; shown is a part drawn at random. About 1,550 of them (2.6%) were called active. 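G2 share is only a proxy for re-replication; each gene was hit by three separate siRNAs, and active genes were retested.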 Not all columns of the deposit are shown. Reagent sequences are not shown. The record does not give: the amount of reagent.

The first 2 entries as a preview:
METAP2 [SID160729683]
- G2 robust z-score: 2.31
- outcome: inactive

METAP2 [SID160729684]
- G2 robust z-score: 0.0702
- outcome: inactive

Results, from the first entry:
METAP2 [SID160729683]
- G2 robust z-score: 2.31
- outcome: inactive

METAP2 [SID160729684]
- G2 robust z-score: 0.0702
- outcome: inactive

METAP2 [SID160729685]
- G2 robust z-score: -0.61
- outcome: inactive

KRT35 [SID160776446]
- G2 robust z-score: -0.573
- outcome: inactive

KRT35 [SID160776447]
- G2 robust z-score: 4.57
- outcome: inactive

KRT35 [SID160776448]
- G2 robust z-score: 1.03
- outcome: inactive

LILRA6 [SID160748733]
- G2 robust z-score: 0.339
- outcome: inactive

LILRA6 [SID160748734]
- G2 robust z-score: 1.43
- outcome: inactive

LILRA6 [SID160748735]
- G2 robust z-score: 1.22
- outcome: inactive

HPS1 [SID160723865]
- G2 robust z-score: -1.02
- outcome: inactive

HPS1 [SID160723866]
- G2 robust z-score: -0.715
- outcome: inactive

HPS1 [SID160723867]
- G2 robust z-score: -0.489
- outcome: inactive

PSMA1 [SID160715166]
- G2 robust z-score: 2.29
- outcome: inactive

PSMA1 [SID160715167]
- G2 robust z-score: 2.65
- outcome: inactive

PSMA1 [SID160715168]
- G2 robust z-score: 0.955
- outcome: inactive

LRPPRC [SID160725749]
- G2 robust z-score: -1.1
- outcome: inactive

LRPPRC [SID160725761]
- G2 robust z-score: -1.28
- outcome: inactive

LRPPRC [SID160725766]
- G2 robust z-score: 1.23
- outcome: inactive

PFN4 [SID160765393]
- G2 robust z-score: -1.13
- outcome: inactive

PFN4 [SID160765394]
- G2 robust z-score: -0.278
- outcome: inactive

PFN4 [SID160765396]
- G2 robust z-score: 0.48
- outcome: inactive

SMAD4 [SID160776859]
- G2 robust z-score: -0.808
- outcome: inactive

SMAD4 [SID160776860]
- G2 robust z-score: -1.29
- outcome: inactive

SMAD4 [SID160776861]
- G2 robust z-score: 4.13
- outcome: inactive
